Paper PMC4742228
Results are given in words; binding and its absence hold for the method and conditions named.

The chains behind the UniProt entries cited, without tags or fusion partners. Where a name states a change or a piece, a line headed by the entry shows the natural chain unless it says otherwise. A line that says so, or that is headed by a name, gives the form on record, which may keep a tag or linker.
E-cadherin EED>AAA (P12830, form named): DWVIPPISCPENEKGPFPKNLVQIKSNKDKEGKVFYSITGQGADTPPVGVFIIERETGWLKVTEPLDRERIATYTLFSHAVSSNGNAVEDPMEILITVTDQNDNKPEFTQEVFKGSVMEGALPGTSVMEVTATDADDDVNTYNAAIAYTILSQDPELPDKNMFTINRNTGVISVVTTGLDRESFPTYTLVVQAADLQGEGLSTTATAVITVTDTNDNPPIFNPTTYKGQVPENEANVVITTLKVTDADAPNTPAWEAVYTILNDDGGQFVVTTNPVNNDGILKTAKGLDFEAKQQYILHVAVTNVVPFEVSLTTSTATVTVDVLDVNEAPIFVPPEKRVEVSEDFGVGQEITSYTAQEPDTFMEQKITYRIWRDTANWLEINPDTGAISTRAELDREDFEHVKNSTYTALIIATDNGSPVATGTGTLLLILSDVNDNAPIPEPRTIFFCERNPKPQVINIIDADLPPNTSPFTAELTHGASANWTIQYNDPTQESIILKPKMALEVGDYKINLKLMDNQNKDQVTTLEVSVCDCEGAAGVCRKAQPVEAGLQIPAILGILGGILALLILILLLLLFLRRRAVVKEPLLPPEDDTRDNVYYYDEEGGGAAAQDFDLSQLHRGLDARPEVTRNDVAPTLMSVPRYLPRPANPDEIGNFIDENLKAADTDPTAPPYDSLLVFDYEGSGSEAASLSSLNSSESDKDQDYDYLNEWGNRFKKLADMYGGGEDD

Molecular target: E-cadherin EED>AAA (human) (UniProt P12830)
Assay: subcellular fractionation (membrane against cytosol); Colo 205 cells swollen in hypotonic buffer (10 mM Tris pH 7.4, 1 mM MgCl2, 1 mM EDTA), Dounce homogenised, NaCl added to 0.15 M, 100,000 x g for 30 min at 4°C; membrane pellet and cytosolic supernatant blotted for p120 and E-cadherin

- binding: no binding
B1: p120-catenin (protein, UniProt O60716 1-968)
chain: MDDSEVESTASILASVKEQEAQFEKLTRALEEERRHVSAQLERVRVSPQDANPLMANGTLTRRHQNGRFVGDADLERQKFSDLKLNGPQDHSHLLYSTIPRMQEPGQIVETYTEEDPEGAMSVVSVETSDDGTTRRTETTVKKVVKTVTTRTVQPVAMGPDGLPVDASSVSNNYIQTLGRDFRKNGNGGPGPYVGQAGTATLPRNFHYPPDGYSRHYEDGYPGGSDNYGSLSRVTRIEERYRPSMEGYRAPSRQDVYGPQPQVRVGGSSVDLHRFHPEPYGLEDDQRSMGYDDLDYGMMSDYGTARRTGTPSDPRRRLRSYEDMIGEEVPSDQYYWAPLAQHERGSLASLDSLRKGGPPPPNWRQPELPEVIAMLGFRLDAVKSNAAAYLQHLCYRNDKVKTDVRKLKGIPVLVGLLDHPKKEVHLGACGALKNISFGRDQDNKIAIKNCDGVPALVRLLRKARDMDLTEVITGTLWNLSSHDSIKMEIVDHALHALTDEVIIPHSGWEREPNEDCKPRHIEWESVLTNTAGCLRNVSSERSEARRKLRECDGLVDALIFIVQAEIGQKDSDSKLVENCVCLLRNLSYQVHREIPQAERYQEAAPNVANNTGPHAASCFGAKKGKDEWFSRGKKPIEDPANDTVDFPKRTSPARGYELLFQPEVVRIYISLLKESKTPAILEASAGAIQNLCAGRWTYGRYIRSALRQEKALSAIADLLTNEHERVVKAASGALRNLAVDARNKELIGKHAIPNLVKNLPGGQQNSSWNFSEDTVISILNTINEVIAENLEAAKKLRETQGIEKLVLINKSGNRSEKEVRAAALVLQTIWGYKELRKPLEKEGWKKSDFQVNLNNASRSQSSHSYDDSTLPLIDRNQKSDKKPDREEIQMSNMGSNTKSLDNNYSTPNERGDHNRTLDRSGDLGDMEPLKGTTPLMQDEGQESLEEELDVLVLDDEGGQVSYPSMQKI
